Results are given in words; binding and its absence hold for the method and conditions named. In cells and extracts the contact can be indirect.
Target: BRCA2 (human (endogenous; cell line not named, all cell lines of the paper are human)) (UniProt P51587)
Assay: co-IP; EMSY and BRCA2 at endogenous levels; no figure cited; cells and antibodies not stated

By UniProt entry, the sequences of proteins in these tests, tags left out.
UniProt P51587: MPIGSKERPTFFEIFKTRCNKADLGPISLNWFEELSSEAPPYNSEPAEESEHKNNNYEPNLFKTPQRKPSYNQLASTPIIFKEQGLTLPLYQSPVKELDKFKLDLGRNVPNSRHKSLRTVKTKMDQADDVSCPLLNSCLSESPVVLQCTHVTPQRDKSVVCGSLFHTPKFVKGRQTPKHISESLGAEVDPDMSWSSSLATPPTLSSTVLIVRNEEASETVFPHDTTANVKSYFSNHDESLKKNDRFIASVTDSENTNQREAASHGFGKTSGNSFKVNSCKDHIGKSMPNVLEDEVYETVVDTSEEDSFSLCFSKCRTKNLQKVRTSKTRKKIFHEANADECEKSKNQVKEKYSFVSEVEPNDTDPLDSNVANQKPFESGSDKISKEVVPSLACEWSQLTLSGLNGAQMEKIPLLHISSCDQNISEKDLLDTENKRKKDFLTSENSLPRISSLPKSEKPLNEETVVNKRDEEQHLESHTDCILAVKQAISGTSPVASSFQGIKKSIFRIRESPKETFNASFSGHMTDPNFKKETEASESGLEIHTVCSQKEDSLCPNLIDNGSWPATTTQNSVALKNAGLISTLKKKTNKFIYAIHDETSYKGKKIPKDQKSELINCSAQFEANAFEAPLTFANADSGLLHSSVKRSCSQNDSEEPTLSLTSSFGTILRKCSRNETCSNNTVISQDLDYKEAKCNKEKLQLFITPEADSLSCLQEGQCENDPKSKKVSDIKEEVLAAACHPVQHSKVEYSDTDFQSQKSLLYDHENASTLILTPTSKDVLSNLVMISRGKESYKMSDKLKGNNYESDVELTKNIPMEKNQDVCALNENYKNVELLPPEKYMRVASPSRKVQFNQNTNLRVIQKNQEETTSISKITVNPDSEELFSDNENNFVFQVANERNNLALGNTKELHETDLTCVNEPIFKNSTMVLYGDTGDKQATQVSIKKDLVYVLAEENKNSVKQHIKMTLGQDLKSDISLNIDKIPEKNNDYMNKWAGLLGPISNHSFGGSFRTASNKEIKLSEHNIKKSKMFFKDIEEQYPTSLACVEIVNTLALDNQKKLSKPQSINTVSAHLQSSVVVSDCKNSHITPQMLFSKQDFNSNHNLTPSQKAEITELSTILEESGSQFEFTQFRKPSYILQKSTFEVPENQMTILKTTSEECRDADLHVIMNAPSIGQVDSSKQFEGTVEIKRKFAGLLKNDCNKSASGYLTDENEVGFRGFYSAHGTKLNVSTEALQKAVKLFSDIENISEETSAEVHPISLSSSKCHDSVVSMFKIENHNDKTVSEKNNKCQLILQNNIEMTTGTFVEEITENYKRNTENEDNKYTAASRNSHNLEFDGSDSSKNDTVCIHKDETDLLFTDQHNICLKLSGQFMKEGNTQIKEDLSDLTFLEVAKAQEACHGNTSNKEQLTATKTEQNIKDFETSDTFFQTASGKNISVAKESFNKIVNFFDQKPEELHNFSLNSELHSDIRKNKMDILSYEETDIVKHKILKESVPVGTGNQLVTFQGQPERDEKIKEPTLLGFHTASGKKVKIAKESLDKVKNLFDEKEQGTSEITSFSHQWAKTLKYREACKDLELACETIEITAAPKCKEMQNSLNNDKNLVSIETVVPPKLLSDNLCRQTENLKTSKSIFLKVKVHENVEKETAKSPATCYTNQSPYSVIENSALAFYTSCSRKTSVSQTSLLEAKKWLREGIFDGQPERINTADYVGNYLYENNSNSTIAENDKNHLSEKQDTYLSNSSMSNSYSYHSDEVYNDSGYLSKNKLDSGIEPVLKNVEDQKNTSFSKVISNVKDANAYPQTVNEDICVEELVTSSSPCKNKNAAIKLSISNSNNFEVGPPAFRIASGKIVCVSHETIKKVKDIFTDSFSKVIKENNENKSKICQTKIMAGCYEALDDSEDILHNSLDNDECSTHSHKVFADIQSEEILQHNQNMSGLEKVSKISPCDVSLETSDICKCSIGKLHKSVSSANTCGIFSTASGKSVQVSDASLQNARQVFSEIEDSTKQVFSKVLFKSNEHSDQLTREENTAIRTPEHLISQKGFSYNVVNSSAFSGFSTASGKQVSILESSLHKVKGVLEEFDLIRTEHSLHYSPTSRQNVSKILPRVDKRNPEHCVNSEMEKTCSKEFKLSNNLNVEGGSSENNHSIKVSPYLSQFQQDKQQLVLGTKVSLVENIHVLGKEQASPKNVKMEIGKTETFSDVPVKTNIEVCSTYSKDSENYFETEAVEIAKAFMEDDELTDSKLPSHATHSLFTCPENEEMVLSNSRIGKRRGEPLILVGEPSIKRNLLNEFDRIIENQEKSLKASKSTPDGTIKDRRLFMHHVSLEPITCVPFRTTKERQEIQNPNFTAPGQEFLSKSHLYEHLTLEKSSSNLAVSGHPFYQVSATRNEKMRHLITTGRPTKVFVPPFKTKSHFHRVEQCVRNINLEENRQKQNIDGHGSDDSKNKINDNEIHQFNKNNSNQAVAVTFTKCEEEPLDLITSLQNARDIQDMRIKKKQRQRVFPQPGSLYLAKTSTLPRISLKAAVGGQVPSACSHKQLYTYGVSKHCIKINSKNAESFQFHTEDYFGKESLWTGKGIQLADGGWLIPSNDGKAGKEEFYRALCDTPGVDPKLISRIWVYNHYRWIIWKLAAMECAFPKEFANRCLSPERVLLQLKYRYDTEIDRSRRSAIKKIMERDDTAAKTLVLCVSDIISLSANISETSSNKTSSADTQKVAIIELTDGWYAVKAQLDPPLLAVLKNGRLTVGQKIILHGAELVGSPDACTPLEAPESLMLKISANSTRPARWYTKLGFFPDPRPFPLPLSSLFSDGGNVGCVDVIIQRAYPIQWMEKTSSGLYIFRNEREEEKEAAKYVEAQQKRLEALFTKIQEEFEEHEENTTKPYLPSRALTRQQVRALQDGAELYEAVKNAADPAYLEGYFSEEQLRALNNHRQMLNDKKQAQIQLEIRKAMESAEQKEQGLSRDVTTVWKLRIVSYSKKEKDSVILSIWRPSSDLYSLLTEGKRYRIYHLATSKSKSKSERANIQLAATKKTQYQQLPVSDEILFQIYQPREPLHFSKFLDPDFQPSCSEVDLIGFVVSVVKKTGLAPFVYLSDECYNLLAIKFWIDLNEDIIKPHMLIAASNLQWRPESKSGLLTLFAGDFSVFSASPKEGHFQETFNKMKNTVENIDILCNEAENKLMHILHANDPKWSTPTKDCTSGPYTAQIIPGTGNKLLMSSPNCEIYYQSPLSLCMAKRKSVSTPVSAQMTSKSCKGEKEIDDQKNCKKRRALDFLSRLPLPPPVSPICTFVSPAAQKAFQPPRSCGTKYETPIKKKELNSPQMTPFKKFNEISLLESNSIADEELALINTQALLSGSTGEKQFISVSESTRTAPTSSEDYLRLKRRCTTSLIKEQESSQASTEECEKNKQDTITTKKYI

B1: EMSY (endogenous) (protein, UniProt Q7Z589 1-1322)
chain: MPVVWPTLLDLSRDECKRILRKLELEAYAGVISALRAQGDLTKEKKDLLGELSKVLSISTERHRAEVRRAVNDERLTTIAHNMSGPNSSSEWSIEGRRLVPLMPRLVPQTAFTVTANAVANAAIQHNASLPVPAETGSKEVVCYSYTSTTSTPTSTPVPSGSIATVKSPRPASPASNVVVLPSGSTVYVKSVSCSDEDEKPRKRRRTNSSSSSPVVLKEVPKAVVPVSKTITVPVSGSPKMSNIMQSIANSLPPHMSPVKITFTKPSTQTTNTTTQKVIIVTTSPSSTFVPNILSKSHNYAAVTKLVPTSVIASTTQKPPVVITASQSSLVSNSSSGSSSSTPSPIPNTVAVTAVVSSTPSVVMSTVAQGVSTSAIKMASTRLPSPKSLVSAPTQILAQFPKQHQQSPKQQLYQVQQQTQQQVAQPSPVSHQQQPQQSPLPPGIKPTIQIKQESGVKIITQQVQPSKILPKPVTATLPTSSNSPIMVVSSNGAIMTTKLVTTPTGTQATYTRPTVSPSIGRMAATPGAATYVKTTSGSIITVVPKSLATLGGKIISSNIVSGTTTKITTIPMTSKPNVIVVQKTTGKGTTIQGLPGKNVVTTLLNAGGEKTIQTVPTGAKPAILTATRPITKMIVTQPKGIGSTVQPAAKIIPTKIVYGQQGKTQVLIKPKPVTFQATVVSEQTRQLVTETLQQASRVAEAGNSSIQEGKEEPQNYTDSSSSSTESSQSSQDSQPVVHVIASRRQDWSEHEIAMETSPTIIYQDVSSESQSATSTIKALLELQQTTVKEKLESKPRQPTIDLSQMAVPIQMTQEKRHSPESPSIAVVESELVAEYITTERTDEGTEVAFPLLVSHRSQPQQPSQPQRTLLQHVAQSQTATQTSVVVKSIPASSPGAITHIMQQALSSHTAFTKHSEELGTEEGEVEEMDTLDPQTGLFYRSALTQSQSAKQQKLSQPPLEQTQLQVKTLQCFQTKQKQTIHLQADQLQHKLPQMPQLSIRHQKLTPLQQEQAQPKPDVQHTQHPMVAKDRQLPTLMAQPPQTVVQVLAVKTTQQLPKLQQAPNQPKIYVQPQTPQSQMSLPASSEKQTASQVEQPIITQGSSVTKITFEGRQPPTVTKITGGSSVPKLTSPVTSISPIQASEKTAVSDILKMSLMEAQIDTNVEHMIVDPPKKALATSMLTGEAGSLPSTHMVVAGMANSTPQQQKCRESCSSPSTVGSSLTTRKIDPPAVPATGQFMRIQNVGQKKAEESPAEIIIQAIPQYAIPCHSSSNVVVEPSGLLELNNFTSQQLDDEETAMEQDIDSSTEDGTEPSPSQSSAERS
binding: no binding
